No constants are given. Whether binding was seen depends on the method and setting. Binding seen in cells or lysates may run through a third protein. A result given as binding can be weak or reduced; the word gives no strength.
How the values were obtained:
[1] = target: precursor N-cadherin (proN-cadherin) (human (endogenous in U251)) (UniProt P19022); assay: co-IP; U251 cells (untransfected or pro-CDH2 transfected) treated with 50 ng/ml exogenous GDNF for 30 min, then cell membrane protein extract, 2 ug first antibody, protein A+G agarose, western blot; the precipitating antibody is not told; only the binder purified
[2] = target: precursor N-cadherin (proN-cadherin), over-expressed from the vector EF1A-proCDH2-IRES-EGFP (human) (UniProt P19022); assay: as above

The chains behind the UniProt entries cited, without tags or fusion partners. Where a name states a change or a piece, a line headed by the entry shows the natural chain unless it says otherwise. Residues count along the entry.
UniProt P19022, residues 26-906: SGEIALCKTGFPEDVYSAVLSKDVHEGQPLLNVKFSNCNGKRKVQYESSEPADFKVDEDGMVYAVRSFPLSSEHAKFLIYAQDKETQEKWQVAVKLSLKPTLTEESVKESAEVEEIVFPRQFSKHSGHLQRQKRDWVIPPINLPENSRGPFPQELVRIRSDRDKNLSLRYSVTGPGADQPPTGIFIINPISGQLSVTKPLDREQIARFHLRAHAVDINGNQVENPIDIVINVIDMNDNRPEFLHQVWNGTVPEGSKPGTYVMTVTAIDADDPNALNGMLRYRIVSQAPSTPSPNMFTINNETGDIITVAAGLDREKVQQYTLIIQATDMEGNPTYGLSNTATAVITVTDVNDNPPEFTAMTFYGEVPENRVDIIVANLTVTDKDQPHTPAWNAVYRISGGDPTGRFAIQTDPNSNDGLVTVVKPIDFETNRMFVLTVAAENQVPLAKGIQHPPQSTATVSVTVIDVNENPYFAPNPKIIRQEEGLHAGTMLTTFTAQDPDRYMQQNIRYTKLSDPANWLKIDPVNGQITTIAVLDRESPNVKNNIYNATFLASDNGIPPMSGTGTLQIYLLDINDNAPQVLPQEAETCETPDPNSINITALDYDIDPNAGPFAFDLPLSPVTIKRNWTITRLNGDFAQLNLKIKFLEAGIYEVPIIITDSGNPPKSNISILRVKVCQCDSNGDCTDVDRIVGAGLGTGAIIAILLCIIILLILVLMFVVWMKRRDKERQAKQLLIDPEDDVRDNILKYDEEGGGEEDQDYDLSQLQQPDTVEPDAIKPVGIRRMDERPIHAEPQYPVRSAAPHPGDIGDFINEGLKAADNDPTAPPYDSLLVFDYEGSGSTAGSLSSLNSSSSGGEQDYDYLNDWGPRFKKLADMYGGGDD
UniProt P39905: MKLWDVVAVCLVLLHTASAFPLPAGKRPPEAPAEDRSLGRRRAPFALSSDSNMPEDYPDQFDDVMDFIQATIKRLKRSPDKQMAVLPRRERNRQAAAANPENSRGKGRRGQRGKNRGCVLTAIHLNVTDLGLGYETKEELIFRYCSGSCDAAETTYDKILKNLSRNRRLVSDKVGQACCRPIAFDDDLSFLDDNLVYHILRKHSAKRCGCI

Q: What does the source list for “exogenous glial cell line-derived neurotrophic factor (GDNF) (from UniProt P39905) (ligand)”?
A: binding [1]: binds; binding [2]: binds
